Results are given in words; binding and its absence hold for the method and conditions named. Binding seen in cells or lysates may run through a third protein. A yes stands for co-enrichment or nearness to the bait. Other partners may have been found.
Target: T1, HSF5 (fifth member of the heat shock factor family) (mouse (endogenous in testis)) (UniProt Q5ND04)
T1 sequence: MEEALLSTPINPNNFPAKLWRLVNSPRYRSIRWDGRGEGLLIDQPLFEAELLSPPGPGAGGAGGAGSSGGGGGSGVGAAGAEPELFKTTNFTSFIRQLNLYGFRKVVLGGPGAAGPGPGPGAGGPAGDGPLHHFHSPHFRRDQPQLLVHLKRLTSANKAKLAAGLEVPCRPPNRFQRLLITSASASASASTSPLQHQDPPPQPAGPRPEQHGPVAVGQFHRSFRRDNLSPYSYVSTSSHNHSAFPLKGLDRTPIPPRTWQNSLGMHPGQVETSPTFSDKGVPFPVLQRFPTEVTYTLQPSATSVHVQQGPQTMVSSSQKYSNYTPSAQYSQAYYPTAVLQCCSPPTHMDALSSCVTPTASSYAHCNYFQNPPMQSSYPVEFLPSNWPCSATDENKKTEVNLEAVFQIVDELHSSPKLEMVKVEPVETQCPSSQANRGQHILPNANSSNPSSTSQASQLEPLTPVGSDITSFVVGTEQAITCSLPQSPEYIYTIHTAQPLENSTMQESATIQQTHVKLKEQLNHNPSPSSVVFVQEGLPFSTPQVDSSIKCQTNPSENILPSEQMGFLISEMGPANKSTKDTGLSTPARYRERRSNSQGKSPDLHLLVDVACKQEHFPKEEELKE
Test: affinity purification with mass spectrometry; co-IP/MS: Hsf5+/+ and Hsf5-/- testis lysates (20 mM Tris-Cl pH 7.4, 150 mM NaCl, 1% NP-40, 0.25% sodium deoxycholate), HSF5 antibodies overnight, protein A/G beads, five washes with 500 mM NaCl wash buffer; eluates analysed by DDA mass spectrometry

The chains behind the UniProt entries cited, without tags or fusion partners.
UniProt Q3TKT4: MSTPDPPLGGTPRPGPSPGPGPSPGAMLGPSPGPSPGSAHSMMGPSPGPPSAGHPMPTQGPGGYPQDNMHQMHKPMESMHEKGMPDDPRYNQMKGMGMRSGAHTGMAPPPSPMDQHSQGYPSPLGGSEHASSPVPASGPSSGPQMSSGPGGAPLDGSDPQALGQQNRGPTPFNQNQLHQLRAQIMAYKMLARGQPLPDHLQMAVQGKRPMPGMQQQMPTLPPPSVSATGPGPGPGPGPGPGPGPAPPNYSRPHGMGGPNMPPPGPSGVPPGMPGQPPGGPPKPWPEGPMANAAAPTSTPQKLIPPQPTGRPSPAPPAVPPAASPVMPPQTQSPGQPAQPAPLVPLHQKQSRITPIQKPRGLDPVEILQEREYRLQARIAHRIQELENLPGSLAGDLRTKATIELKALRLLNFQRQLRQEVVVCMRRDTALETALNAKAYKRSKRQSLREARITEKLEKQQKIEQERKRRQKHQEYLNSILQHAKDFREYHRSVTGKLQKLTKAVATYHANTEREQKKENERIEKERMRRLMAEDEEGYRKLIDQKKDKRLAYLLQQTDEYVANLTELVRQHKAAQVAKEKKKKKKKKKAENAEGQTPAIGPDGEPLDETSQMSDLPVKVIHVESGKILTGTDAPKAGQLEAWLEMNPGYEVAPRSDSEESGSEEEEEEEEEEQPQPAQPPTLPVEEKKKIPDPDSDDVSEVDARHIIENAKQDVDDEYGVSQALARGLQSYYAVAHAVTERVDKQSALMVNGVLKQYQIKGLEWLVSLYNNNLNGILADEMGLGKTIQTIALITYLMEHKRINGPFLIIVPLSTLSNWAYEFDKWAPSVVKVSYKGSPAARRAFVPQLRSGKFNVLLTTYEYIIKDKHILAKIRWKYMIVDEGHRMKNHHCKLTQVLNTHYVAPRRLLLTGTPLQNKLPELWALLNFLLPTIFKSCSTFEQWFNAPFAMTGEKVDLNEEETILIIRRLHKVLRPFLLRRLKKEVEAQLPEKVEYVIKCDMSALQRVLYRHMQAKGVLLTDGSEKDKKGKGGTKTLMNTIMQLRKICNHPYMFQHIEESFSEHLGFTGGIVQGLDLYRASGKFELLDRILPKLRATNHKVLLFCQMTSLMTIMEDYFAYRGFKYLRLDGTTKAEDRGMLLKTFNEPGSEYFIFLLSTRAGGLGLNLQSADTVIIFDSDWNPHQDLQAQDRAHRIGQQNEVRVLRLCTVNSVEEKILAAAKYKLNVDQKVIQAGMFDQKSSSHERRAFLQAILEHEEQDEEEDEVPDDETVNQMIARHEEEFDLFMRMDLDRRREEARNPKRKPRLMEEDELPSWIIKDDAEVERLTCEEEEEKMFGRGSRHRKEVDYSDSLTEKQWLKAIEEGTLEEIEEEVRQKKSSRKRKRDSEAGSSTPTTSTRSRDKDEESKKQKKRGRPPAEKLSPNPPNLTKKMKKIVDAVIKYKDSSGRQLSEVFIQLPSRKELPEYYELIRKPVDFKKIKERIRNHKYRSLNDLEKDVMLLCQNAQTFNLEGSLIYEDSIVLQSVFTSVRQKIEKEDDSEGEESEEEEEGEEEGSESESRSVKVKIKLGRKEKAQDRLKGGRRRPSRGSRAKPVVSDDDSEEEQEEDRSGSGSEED
UniProt Q91ZW3: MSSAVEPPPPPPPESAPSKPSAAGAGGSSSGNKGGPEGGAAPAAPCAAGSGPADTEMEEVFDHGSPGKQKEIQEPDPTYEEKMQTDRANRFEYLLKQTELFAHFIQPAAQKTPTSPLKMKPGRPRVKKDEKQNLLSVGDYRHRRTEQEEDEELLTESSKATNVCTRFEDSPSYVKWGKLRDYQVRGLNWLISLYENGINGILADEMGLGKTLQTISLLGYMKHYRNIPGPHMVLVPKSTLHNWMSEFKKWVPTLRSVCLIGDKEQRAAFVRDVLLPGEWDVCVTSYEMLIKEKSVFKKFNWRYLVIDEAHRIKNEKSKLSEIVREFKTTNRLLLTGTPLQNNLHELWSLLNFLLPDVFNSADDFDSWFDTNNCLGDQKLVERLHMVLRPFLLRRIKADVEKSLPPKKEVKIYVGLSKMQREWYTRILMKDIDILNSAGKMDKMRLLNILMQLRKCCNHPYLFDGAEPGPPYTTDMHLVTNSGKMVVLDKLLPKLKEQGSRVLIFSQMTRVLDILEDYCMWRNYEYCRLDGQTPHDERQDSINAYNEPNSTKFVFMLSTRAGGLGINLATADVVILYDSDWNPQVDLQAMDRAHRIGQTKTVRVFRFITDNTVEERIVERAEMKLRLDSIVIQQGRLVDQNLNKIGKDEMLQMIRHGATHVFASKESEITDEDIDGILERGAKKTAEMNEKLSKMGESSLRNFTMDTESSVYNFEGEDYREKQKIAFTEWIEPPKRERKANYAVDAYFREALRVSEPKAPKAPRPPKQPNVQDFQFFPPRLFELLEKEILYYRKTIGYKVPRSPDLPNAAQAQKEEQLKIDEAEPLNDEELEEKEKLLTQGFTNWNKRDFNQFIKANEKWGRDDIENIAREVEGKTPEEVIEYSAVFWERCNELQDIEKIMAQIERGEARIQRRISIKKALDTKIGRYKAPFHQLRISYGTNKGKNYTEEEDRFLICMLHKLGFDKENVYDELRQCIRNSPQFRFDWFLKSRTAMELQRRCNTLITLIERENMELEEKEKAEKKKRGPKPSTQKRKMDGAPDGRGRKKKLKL
UniProt O54941: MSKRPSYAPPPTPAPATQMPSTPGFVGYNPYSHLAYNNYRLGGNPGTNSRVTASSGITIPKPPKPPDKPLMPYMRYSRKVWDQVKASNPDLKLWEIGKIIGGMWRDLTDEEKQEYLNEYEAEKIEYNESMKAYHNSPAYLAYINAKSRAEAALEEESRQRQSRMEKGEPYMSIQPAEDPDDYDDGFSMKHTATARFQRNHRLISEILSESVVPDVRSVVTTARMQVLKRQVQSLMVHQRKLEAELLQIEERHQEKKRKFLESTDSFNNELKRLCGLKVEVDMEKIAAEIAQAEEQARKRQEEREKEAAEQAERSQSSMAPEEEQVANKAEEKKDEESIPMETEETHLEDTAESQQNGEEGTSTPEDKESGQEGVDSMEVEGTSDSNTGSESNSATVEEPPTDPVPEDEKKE

| Substance | binding |
| --- | --- |
| SMARCA4 (from UniProt Q3TKT4 1-1613) | binds |
| SMARCA5 (from UniProt Q91ZW3 1-1051) | binds |
| SMARCE1 (from UniProt O54941 1-411) | binds |

From paper PMC11417359
